Test results taken from the supplement of paper PMC10849652.
This is one part of the list.

Sequences of proteins named here, by UniProt entry; tags and fusion partners are left off. A change or cut given only in a name is not applied to a line headed by its entry.
UniProt Q9Y664: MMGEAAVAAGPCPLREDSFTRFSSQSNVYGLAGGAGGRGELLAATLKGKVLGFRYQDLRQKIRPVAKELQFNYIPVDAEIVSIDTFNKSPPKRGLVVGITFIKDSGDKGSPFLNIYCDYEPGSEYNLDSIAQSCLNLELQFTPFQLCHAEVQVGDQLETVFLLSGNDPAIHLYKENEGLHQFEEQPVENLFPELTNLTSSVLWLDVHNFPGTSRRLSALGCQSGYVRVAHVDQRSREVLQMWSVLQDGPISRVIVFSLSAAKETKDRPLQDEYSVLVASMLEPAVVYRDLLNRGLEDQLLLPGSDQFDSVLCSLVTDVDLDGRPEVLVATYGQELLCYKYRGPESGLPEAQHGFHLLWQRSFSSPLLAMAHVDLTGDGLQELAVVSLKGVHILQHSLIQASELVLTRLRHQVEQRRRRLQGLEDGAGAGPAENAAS
UniProt Q9Y4C1: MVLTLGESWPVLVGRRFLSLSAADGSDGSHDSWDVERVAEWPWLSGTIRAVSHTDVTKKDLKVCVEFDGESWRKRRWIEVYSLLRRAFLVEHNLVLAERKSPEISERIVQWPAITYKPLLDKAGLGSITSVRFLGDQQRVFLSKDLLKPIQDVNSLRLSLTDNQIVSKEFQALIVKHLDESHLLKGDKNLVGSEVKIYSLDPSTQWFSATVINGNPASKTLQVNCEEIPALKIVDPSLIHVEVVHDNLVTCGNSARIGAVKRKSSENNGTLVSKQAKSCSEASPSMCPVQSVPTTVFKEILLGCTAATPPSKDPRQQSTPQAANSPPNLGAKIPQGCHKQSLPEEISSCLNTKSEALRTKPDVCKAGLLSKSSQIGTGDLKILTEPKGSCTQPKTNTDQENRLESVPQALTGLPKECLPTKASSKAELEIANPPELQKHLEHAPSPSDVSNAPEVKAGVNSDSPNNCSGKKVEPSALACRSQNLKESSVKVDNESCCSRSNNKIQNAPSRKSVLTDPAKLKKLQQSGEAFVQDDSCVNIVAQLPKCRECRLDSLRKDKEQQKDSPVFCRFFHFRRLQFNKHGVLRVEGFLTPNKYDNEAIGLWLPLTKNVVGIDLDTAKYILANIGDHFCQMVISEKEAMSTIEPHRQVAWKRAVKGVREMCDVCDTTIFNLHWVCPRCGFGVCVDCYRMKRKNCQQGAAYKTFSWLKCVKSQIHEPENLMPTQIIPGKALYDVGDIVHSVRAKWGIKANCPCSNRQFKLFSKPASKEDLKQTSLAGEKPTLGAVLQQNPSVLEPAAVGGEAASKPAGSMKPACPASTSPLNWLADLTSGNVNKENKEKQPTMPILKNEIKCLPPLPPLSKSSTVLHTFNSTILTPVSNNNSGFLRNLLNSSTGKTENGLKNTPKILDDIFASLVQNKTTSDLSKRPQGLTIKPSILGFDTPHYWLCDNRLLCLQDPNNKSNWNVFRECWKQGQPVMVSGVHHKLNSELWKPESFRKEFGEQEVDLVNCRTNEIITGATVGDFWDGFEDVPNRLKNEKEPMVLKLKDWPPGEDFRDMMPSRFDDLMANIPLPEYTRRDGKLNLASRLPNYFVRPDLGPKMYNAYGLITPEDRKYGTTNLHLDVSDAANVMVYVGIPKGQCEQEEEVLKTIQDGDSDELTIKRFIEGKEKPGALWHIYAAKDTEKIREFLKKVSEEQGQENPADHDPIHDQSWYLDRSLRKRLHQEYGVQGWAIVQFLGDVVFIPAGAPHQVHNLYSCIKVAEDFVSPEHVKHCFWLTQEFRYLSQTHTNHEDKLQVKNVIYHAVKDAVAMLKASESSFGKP
UniProt Q9BXK1: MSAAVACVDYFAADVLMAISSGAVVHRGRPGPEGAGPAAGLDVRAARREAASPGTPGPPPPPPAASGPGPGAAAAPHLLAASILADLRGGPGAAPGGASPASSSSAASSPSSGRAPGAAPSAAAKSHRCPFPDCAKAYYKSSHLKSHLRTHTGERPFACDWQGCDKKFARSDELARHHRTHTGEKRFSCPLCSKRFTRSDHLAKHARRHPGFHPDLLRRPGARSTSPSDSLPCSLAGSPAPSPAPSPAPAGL
UniProt Q9Y2M5: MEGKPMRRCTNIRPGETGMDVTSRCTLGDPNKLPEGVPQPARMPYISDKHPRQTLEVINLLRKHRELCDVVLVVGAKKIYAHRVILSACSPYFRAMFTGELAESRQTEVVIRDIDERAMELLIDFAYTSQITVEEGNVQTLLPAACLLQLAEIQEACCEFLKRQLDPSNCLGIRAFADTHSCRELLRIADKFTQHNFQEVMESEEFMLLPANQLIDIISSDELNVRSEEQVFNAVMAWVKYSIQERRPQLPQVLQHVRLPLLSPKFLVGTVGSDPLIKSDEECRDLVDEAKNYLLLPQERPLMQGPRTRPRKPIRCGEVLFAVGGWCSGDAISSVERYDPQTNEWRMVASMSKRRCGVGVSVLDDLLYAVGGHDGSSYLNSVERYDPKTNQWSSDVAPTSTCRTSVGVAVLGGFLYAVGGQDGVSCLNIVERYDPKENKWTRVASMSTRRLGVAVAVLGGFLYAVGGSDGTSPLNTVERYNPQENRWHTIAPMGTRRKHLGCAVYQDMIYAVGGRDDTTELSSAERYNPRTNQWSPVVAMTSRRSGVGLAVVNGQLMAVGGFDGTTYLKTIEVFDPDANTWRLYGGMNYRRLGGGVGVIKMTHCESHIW
UniProt O00522: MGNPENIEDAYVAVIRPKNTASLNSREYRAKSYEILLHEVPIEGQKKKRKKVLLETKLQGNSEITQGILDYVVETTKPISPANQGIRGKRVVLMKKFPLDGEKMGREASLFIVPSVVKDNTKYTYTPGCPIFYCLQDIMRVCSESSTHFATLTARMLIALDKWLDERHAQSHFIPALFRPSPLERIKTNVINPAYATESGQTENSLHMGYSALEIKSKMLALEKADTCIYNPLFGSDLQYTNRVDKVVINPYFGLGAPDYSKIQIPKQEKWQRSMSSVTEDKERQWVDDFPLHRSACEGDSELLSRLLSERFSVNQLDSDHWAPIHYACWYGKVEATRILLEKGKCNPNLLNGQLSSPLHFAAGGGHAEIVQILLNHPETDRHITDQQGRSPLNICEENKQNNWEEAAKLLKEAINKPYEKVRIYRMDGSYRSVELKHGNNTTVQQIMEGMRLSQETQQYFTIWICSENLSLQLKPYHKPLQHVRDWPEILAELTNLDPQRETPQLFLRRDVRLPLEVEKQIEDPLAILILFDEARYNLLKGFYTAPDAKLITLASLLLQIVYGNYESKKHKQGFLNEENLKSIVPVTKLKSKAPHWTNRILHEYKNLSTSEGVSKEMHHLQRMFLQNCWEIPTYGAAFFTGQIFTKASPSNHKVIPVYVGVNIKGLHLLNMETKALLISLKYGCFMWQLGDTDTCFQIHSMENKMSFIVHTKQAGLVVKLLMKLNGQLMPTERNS
UniProt O60268: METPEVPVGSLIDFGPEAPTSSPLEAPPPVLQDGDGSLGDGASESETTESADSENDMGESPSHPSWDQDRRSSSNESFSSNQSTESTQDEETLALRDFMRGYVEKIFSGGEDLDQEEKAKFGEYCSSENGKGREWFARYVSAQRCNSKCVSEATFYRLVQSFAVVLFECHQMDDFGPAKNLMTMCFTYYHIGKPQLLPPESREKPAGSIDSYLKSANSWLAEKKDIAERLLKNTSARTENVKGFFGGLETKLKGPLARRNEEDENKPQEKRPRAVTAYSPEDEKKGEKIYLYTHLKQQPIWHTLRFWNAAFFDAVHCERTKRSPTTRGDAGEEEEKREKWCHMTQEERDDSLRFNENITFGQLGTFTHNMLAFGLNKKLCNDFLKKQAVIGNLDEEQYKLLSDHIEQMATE
UniProt Q9Y2K7: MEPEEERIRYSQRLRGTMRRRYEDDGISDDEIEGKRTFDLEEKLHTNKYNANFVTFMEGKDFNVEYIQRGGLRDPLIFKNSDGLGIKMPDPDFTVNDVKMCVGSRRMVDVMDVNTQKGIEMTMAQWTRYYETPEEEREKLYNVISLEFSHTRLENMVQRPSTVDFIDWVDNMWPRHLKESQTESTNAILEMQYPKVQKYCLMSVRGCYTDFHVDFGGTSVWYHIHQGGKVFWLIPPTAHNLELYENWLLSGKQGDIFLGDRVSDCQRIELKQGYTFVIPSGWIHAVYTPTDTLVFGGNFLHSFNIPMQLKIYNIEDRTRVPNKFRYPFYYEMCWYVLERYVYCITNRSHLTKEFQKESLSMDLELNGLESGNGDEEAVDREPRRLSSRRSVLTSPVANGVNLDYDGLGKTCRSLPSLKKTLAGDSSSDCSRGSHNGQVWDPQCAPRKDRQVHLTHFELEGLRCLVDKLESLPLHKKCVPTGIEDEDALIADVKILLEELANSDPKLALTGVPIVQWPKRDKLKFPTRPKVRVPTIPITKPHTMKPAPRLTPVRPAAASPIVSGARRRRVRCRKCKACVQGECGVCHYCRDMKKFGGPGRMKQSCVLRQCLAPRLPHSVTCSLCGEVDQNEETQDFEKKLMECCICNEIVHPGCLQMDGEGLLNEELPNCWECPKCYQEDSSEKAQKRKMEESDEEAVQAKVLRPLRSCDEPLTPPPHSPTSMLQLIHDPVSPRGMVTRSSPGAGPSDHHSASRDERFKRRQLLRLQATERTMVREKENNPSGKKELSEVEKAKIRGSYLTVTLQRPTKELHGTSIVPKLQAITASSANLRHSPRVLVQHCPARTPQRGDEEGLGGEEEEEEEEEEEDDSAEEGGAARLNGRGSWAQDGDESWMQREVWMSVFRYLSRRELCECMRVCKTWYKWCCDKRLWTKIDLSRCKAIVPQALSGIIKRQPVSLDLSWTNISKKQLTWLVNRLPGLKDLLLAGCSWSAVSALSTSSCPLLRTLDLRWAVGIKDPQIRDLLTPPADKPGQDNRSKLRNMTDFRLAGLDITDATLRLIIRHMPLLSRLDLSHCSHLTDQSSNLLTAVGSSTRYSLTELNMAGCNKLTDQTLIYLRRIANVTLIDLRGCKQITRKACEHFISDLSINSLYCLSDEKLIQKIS
UniProt O76095: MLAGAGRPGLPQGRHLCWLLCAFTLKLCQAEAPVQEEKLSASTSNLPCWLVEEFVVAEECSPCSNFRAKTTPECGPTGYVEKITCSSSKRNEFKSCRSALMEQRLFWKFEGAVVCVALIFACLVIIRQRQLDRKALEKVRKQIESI
UniProt Q15053: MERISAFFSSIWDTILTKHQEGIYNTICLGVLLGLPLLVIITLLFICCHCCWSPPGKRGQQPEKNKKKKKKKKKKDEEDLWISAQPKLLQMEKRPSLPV
UniProt O95251, whole entry, looked up: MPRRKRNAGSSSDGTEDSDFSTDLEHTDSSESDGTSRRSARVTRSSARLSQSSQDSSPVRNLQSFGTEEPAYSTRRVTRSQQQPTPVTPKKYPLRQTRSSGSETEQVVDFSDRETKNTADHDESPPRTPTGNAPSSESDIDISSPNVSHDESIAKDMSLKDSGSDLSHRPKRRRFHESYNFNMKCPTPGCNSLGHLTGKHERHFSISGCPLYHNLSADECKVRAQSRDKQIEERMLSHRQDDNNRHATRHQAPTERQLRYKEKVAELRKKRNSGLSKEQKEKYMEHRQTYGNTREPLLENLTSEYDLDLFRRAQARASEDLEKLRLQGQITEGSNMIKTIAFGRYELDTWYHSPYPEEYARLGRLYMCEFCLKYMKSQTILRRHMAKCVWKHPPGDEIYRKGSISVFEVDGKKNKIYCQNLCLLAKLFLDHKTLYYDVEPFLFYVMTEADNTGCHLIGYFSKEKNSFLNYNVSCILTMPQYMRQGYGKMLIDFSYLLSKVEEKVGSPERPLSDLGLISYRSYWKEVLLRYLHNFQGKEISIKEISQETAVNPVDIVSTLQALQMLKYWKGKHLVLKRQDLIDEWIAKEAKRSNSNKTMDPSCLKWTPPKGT
UniProt P01042: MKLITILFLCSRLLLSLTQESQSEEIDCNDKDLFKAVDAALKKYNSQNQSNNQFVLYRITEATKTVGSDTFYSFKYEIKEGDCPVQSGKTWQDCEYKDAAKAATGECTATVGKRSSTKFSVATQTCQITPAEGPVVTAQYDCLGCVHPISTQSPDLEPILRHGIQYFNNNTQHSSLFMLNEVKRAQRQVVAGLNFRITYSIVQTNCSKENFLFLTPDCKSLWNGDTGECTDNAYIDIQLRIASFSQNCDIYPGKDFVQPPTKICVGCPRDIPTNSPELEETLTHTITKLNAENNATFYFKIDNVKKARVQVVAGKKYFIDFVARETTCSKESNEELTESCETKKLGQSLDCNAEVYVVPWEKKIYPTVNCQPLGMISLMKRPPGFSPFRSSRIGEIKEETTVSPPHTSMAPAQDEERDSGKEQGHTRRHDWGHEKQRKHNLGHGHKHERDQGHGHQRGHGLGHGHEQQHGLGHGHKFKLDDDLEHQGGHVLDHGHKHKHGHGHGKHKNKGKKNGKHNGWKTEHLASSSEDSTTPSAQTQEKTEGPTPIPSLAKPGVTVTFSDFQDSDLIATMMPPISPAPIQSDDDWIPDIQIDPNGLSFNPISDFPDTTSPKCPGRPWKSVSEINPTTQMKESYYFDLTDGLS

What was measured:
Assay in all cases: log2 fold change, soluble protein after heating vs DMSO (PISA); higher = thermal stabilisation; K562 cells, 10 uM, 30 min; active = over 0.2 and 3.5 SD of the protein, either way, in both replicates (recomputed)
erlotinib = compound: C#Cc1cccc(Nc2ncnc3cc(OCCOC)c(OCCOC)cc23)c1 [erlotinib]
In short: (§1)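 Quantification of soluble protein used TMTpro 16plex LC-MS/MS, with channel sums equalised. Samples were the supernatant after 21,000xg for 90 min of pooled aliquots from K562 cells (2×10^6 cells/mL) treated with 10 μM compound for 30 min, heated for 3 min over 48°C-58°C, and extracted in PBS with 0.5% NP-40 at 4°C. Values, from duplicates, describe thermal stability against control samples on a log2 fold-change scale.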

[1] = compound: C/C(=N\NC(=O)C1=CC(=CC=C1)S(=O)(=O)N2CCOCC2)/C3=C(C=CC(=C3)Cl)O
In short: as §1

[2] = compound: C1=CC(=C(C=C1Cl)C2=NC3=NC=CN=C3C(=N2)NC4=CC=NC=C4)F
In short: as §1

[3] = compound: C1=CC(=CC=C1C2=NC3=C(N2)C=C(C=C3)C(=O)N)OC4=CC=C(C=C4)Cl
In short: as §1

[4] = compound: C1=CC2=C(C=CC(=C2)/C=C\3/C(=O)NC(=NCC4=CC=CS4)S3)N=C1
In short: as §1

[5] = compound: C1=CC2=NC=CN=C2C=C1/C=C/3\C(=O)NC(=O)S3
In short: as §1

[6] = compound: C1=CC=C(C=C1)C2=NC(=C(N2)C3=CC=NC=C3)C4=CC(=C(C=C4)Cl)O
In short: as §1

[7] = compound: C1=CC=C2C(=C1)C3=NNC4=CC=CC(=C43)C2=O
In short: as §1

[8] = compound: C1CCN(C1)C(=O)NC2=CC=CC(=C2)NC3=NC=C(C(=N3)NCCC4=CN=CN4)Br
In short: as §1

[9] = compound: C1CN(CCC1(CC2=CC=C(C=C2)Cl)N)C3=NC=NC4=C3C=CN4
In short: as §1

Measured: log2 fold change

KIAA1324L (UniProt A8MWY0)
inactive: erlotinib 0.036 | [1] -0.077 | [2] 0.003 | [3] 0.05 | [4] 0.092 | [5] -0.068 | [6] 0.003 | [7] -0.042 | [8] -0.03 | [9] 0.064

KIDINS220 (UniProt Q9ULH0)
inactive: erlotinib -0.028 | [1] -0.01 | [2] 0.023 | [3] 0.054 | [4] -0.014 | [5] 0.006 | [6] 0.007 | [7] -0.066 | [8] -0.033 | [9] 0.034

KRAS isoform 2 (UniProt P01116)
inactive: erlotinib -0.035 | [1] -0.011 | [2] 0.006 | [3] 0.029 | [4] 0.005 | [5] 0.019 | [6] 0.002 | [7] -0.03 | [8] 0.045 | [9] -0.084

KIF15 (UniProt Q9NS87)
inactive: erlotinib 0.02 | [1] -0.042 | [2] -0.326 | [3] -0.087 | [4] -0.007 | [5] -0.074 | [6] 0.007 | [7] -0.105 | [8] -0.076 | [9] -0.094

KAZN isoform 3 (UniProt Q674X7)
inactive: erlotinib 0.059 | [1] 0.002 | [2] 0.018 | [3] 0.021 | [4] -0.005 | [5] -0.012 | [6] -0.008 | [7] -0.022 | [8] -0.014 | [9] 0.025

KCTD15 (UniProt Q96SI1)
inactive: erlotinib 0.048 | [1] 0.017 | [2] 0.087 | [3] -0.004 | [4] 0.019 | [5] 0.03 | [6] -0.101 | [7] -0.044 | [8] 0.065 | [9] 0.015

KPTN (UniProt Q9Y664)
inactive: erlotinib 0.001 | [1] 0.034 | [2] 0.01 | [3] 0.038 | [4] 0.044 | [5] -0.035 | [6] 0.114 | [7] -0.021 | [8] 0.004 | [9] -0.06

KDELR2 (UniProt P33947)
inactive: erlotinib -0.06 | [1] -0.052 | [2] 0.048 | [3] -0.02 | [4] 0.042 | [5] 0.024 | [6] 0.201 | [7] 0.048 | [8] -0.102 | [9] 0.019

Reprinted from the listing (two entries):
KIF15 (UniProt Q9NS87)
inactive: erlotinib 0.02 | [1] -0.042 | [2] -0.326 | [3] -0.087 | [4] -0.007 | [5] -0.074 | [6] 0.007 | [7] -0.105 | [8] -0.076 | [9] -0.094

KAZN isoform 3 (UniProt Q674X7)
inactive: erlotinib 0.059 | [1] 0.002 | [2] 0.018 | [3] 0.021 | [4] -0.005 | [5] -0.012 | [6] -0.008 | [7] -0.022 | [8] -0.014 | [9] 0.025

Going on with the list:

KLF3 (UniProt P57682)
inactive: erlotinib 0.046 | [1] -0.106 | [2] -0.012 | [3] -0.07 | [4] -0.03 | [5] 0.077 | [6] -0.096 | [7] 0 | [8] 0.087 | [9] 0.041

KHDC4 (UniProt Q7Z7F0)
inactive: erlotinib -0.005 | [1] 0.14 | [2] 0.009 | [3] -0.058 | [4] 0.089 | [5] 0.084 | [6] 0.074 | [7] -0.041 | [8] -0.042 | [9] 0.025

JPT2 isoform 2 (UniProt Q9H910)
inactive: erlotinib 0.021 | [1] -0.115 | [3] 0.01 | [4] -0.038 | [5] 0.034 | [7] -0.111 | [8] 0.072 | [9] 0.033

KCNK1 (UniProt O00180)
inactive: erlotinib -0.06 | [2] -0.044 | [3] 0.028 | [5] 0.048 | [6] -0.06

KAT8 isoform 2 (UniProt Q9H7Z6)
inactive: erlotinib 0.046 | [1] 0.02 | [3] -0.062 | [4] 0.019 | [5] 0.058 | [6] -0.248 | [7] -0.064 | [8] -0.027 | [9] -0.003

JMJD7 (UniProt P0C870)
inactive: erlotinib 0.167 | [2] 0.2 | [3] -0.083 | [5] -0.105

KIF21A isoform 4 (UniProt Q7Z4S6)
inactive: erlotinib 0.017 | [1] 0.056 | [2] -0.043 | [3] -0.016 | [4] -0.023 | [5] 0.006 | [6] -0.075 | [7] -0.065 | [8] -0.144 | [9] -0.233

KDM3A (UniProt Q9Y4C1)
inactive: erlotinib 0.148 | [3] -0.08

KLF16 (UniProt Q9BXK1)
inactive: erlotinib 0.022 | [1] -0.096 | [3] 0.014 | [4] -0.224 | [5] 0.031 | [7] -0.046 | [8] 0.034 | [9] 0.031

KNOP1 (UniProt Q1ED39)
inactive: erlotinib 0.341 | [1] -0.445 | [3] -0.098 | [4] 0.012 | [5] -0.016 | [6] 0.059 | [7] -0.095 | [8] 0.05 | [9] -0.127

KLHL20 (UniProt Q9Y2M5)
inactive: erlotinib -0.091 | [1] -0.081 | [3] -0.019 | [4] 0.034 | [6] -0.078 | [7] 0.018 | [8] 0.001 | [9] 0.023

KAT6B (UniProt Q8WYB5)
inactive: erlotinib 0.029 | [1] 0.004 | [3] 0.145 | [4] -0.029 | [5] 0.034 | [6] 0 | [7] -0.092 | [8] -0.012 | [9] -0.017

KLHDC8B (UniProt Q8IXV7)
inactive: erlotinib -0.221 | [1] 0.05 | [3] 0.172 | [4] -0.079 | [5] 0.247 | [6] -0.243 | [7] 0.102 | [8] 0.088 | [9] -0.085

KIAA0930 isoform 2 (UniProt Q6ICG6)
inactive: erlotinib 0.058 | [2] 0.024 | [3] -0.001 | [5] 0.006

KNL1 (UniProt Q8NG31)
inactive: erlotinib 0.166 | [2] -0.338 | [3] 0.099 | [6] -0.163 | [8] -0.037 | [9] 0.136

KDELR1 (UniProt P24390)
inactive: erlotinib -0.092 | [2] -0.07 | [3] 0.004 | [5] -0.151 | [6] -0.104 | [8] -0.052 | [9] 0.136

KRIT1 (UniProt O00522)
inactive: erlotinib 0.07 | [2] 0.19 | [3] 0.007 | [5] 0.163 | [6] -0.118

KIAA0513 (UniProt O60268)
inactive: erlotinib 0.161 | [1] 0.146 | [3] -0.203 | [4] 0 | [5] 0.165 | [7] 0.048 | [8] -0.111 | [9] 0.048

KDM2A (UniProt Q9Y2K7)
inactive: erlotinib -0.023 | [2] 0.149 | [3] 0.031 | [5] -0.017 | [6] 0.14 | [8] -0.085 | [9] 0.099

JAK3 (UniProt P52333)
inactive: erlotinib -0.178 | [2] 0.062 | [3] -0.013 | [5] 0.021 | [6] -0.207 | [8] 0.059 | [9] -0.024

KCNK5 (UniProt O95279)
inactive: erlotinib -0.101 | [2] -0.128 | [3] 0.077 | [5] 0.095

KISS1R (UniProt Q969F8)
inactive: erlotinib -0.173 | [2] -0.03 | [3] -0.013 | [5] 0.179 | [6] -0.053 | [8] -0.048 | [9] 0.08

JTB (UniProt O76095)
inactive: erlotinib 0.049 | [1] -0.124 | [2] 0.111 | [3] -0.029 | [4] -0.117 | [5] -0.001 | [7] 0.267 | [8] 0.106 | [9] 0.044

JOSD1 (UniProt Q15040)
inactive: erlotinib -0.045 | [1] 0.431 | [2] 0.109 | [3] 0.006 | [4] 0 | [7] 0.106

KALRN (UniProt O60229)
inactive: erlotinib 0.199 | [2] -0.062 | [3] -0.129 | [5] 0

KIAA1109 (UniProt Q2LD37)
inactive: erlotinib 0.003 | [3] -0.019

KCNN4 (UniProt O15554)
inactive: erlotinib 0.035 | [1] -0.021 | [3] 0.097 | [4] -0.02 | [5] -0.044 | [6] 0.022 | [7] 0.046 | [8] -0.074 | [9] -0.041

KIAA0040 (UniProt Q15053)
inactive: erlotinib -0.121 | [1] -0.253 | [3] -0.125 | [4] 0.201 | [7] -0.125

KAT7 (UniProt O95251)
inactive: erlotinib 0.284 | [1] 0 | [3] -0.152 | [4] -0.225 | [5] 0 | [6] 0.225 | [7] 0.231

KBTBD7 (UniProt Q8WVZ9)
inactive: erlotinib -0.055 | [3] -0.004

KNG1 (UniProt P01042)
inactive: erlotinib -0.081 | [1] -0.121 | [3] 0.101 | [4] 0.07 | [5] -0.054 | [6] -0.136 | [7] -0.073 | [8] 0.023 | [9] 0.19
